This is an account of results in patent US20110144303A1 (AILERON Therapeutics, Inc., priority 2008, published 2011).

Where “and” joins values, the source holds several entries; their conditions need not be identical. Identical values can stand only once.

This data set can be described thus: general procedure: Fmoc solid-phase peptide synthesis; Rink AM resin (polystyrene); HCTU. Conditions: whole synthesis, scale 0.1 mmol, HCl exchange by lyophilisation for SP-41 and SP-27 type peptides, cyclic, sequence written open; run 1.

On to Ac-IWIAQELR#sIGD#sFNAYYARR-NH2, for which the isolated mass is 5.4 mg and 5.7 mg.
